Test results as given in paper PMC9561260.

By UniProt entry, the sequences of proteins in these tests, tags left out.
UniProt O95347: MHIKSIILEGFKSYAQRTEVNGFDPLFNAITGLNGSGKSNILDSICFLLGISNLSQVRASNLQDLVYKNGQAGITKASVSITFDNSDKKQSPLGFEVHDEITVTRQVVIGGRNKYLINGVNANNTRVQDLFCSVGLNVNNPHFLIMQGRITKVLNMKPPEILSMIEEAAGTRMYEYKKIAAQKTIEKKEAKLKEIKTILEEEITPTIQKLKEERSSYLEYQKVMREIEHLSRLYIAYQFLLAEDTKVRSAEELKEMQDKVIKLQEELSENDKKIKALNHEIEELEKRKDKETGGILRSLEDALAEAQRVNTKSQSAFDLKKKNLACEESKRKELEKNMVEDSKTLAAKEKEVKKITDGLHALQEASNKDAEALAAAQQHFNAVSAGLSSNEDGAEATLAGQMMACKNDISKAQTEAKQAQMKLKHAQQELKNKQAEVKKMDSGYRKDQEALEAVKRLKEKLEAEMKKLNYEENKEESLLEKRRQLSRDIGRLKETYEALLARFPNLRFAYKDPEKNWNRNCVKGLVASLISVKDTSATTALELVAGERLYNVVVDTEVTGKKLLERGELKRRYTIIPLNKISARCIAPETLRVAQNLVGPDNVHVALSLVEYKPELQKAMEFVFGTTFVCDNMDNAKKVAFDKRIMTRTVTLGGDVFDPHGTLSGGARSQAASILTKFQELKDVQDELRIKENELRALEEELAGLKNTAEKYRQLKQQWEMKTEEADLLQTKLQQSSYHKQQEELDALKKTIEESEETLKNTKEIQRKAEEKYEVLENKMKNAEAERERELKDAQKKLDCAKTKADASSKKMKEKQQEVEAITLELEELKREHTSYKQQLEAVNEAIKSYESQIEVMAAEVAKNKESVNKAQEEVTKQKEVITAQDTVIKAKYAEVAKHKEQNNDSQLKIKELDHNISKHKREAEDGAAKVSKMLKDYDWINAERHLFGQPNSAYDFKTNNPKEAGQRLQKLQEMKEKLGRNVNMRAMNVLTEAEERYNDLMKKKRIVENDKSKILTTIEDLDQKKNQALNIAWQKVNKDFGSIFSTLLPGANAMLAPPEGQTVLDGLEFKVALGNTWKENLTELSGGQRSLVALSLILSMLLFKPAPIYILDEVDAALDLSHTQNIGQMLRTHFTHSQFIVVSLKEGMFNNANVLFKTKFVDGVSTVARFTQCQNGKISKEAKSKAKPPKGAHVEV
UniProt P40763: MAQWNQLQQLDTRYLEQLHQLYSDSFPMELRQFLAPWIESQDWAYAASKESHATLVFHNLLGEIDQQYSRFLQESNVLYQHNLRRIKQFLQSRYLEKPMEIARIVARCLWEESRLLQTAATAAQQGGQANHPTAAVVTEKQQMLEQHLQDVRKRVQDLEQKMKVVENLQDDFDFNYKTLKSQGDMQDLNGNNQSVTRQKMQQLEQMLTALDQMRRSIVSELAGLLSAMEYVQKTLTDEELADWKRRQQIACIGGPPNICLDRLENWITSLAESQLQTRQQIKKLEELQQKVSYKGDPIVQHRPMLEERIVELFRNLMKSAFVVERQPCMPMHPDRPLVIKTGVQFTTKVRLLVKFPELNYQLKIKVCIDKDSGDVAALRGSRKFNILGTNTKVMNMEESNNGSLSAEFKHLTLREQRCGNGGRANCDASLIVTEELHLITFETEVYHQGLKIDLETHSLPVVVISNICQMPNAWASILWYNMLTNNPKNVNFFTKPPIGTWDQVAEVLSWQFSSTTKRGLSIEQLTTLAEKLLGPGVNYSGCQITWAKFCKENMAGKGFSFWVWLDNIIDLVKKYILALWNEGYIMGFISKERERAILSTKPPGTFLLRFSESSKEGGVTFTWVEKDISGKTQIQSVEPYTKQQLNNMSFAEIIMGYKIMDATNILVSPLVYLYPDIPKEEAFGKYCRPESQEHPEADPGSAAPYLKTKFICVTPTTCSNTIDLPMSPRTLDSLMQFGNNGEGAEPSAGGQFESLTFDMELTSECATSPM
UniProt A8K4T8: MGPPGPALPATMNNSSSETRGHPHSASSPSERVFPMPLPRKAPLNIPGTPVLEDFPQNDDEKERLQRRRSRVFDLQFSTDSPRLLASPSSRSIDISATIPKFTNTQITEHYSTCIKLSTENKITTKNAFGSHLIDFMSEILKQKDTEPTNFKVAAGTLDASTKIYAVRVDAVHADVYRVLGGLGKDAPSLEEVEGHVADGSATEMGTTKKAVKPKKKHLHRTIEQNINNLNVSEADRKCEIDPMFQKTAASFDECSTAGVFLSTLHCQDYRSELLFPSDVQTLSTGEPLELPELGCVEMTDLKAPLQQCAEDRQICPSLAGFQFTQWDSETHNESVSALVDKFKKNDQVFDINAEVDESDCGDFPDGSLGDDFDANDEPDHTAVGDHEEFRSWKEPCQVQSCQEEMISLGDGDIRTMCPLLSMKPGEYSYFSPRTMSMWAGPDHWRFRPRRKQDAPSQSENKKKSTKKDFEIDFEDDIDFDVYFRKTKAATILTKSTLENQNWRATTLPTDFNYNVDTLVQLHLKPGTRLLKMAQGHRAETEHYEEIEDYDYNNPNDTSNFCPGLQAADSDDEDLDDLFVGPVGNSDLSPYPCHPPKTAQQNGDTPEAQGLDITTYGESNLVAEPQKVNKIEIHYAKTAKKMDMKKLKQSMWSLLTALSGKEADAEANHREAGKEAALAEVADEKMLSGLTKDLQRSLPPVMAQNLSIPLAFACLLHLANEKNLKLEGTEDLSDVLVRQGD
UniProt P52701: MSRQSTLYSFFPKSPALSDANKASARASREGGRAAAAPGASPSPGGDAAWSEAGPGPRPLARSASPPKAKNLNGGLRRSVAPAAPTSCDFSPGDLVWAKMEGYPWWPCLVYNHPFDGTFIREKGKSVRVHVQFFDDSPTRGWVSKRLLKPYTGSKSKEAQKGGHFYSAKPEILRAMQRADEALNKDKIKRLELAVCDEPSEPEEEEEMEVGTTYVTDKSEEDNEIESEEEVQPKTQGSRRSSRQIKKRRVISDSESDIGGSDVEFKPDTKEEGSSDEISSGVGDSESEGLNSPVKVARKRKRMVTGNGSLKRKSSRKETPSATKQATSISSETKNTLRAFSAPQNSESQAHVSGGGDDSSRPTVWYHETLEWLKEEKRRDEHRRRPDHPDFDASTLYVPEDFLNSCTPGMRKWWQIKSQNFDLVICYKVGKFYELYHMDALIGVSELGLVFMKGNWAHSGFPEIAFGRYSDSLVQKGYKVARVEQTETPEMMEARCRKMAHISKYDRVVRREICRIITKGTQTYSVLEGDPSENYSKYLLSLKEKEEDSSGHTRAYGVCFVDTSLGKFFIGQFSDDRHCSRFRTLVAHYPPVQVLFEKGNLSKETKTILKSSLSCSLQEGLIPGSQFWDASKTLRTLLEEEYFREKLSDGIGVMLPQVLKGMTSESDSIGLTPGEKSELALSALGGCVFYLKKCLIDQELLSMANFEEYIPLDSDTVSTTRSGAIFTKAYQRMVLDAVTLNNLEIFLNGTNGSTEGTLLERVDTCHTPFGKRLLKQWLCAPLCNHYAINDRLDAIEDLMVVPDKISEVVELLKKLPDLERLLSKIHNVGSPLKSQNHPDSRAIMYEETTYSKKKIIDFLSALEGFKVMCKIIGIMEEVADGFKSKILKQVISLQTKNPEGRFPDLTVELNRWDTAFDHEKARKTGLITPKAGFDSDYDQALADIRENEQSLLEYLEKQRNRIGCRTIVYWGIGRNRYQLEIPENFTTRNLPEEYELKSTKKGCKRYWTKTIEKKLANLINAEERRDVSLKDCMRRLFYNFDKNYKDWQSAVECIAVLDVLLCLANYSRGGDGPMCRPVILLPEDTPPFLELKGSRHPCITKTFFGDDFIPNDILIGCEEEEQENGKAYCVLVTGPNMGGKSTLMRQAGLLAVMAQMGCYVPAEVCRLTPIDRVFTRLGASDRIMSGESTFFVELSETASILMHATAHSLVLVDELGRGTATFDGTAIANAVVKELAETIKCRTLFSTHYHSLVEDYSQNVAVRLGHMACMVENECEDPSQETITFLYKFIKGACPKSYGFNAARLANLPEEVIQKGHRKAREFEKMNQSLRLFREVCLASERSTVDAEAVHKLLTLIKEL
UniProt Q8N122: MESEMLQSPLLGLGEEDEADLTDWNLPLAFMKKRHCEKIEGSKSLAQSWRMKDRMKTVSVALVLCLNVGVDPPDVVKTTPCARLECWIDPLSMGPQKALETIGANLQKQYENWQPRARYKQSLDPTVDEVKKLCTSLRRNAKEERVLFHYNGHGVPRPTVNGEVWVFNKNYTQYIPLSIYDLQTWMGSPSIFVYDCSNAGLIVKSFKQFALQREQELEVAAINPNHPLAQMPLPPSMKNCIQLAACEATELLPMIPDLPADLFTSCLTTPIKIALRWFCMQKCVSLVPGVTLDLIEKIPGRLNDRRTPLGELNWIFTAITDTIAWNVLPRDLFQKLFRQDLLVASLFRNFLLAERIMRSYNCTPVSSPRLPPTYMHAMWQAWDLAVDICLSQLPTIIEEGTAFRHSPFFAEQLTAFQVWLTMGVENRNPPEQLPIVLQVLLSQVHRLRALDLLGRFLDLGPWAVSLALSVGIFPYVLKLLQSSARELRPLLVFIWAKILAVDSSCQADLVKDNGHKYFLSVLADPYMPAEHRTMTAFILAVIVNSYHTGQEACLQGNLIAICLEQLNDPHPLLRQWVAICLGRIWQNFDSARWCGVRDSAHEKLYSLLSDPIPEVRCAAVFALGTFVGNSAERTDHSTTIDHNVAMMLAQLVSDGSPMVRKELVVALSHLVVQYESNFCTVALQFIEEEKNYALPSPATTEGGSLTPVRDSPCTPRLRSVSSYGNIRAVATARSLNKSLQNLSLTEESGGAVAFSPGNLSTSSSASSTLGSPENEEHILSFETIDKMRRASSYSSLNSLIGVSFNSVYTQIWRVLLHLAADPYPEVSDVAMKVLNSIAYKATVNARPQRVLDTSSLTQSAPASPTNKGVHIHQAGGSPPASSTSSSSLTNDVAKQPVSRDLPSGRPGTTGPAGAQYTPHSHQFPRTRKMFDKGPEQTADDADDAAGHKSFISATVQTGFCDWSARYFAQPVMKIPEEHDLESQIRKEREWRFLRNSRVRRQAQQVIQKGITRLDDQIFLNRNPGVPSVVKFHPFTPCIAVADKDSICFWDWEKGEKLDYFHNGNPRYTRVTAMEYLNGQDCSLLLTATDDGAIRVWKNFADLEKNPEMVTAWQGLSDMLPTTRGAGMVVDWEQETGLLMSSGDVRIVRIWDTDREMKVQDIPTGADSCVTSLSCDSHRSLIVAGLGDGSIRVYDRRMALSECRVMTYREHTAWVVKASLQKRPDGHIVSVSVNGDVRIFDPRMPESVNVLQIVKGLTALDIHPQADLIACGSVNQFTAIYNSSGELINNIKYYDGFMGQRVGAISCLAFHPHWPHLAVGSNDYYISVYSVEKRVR
UniProt P20585: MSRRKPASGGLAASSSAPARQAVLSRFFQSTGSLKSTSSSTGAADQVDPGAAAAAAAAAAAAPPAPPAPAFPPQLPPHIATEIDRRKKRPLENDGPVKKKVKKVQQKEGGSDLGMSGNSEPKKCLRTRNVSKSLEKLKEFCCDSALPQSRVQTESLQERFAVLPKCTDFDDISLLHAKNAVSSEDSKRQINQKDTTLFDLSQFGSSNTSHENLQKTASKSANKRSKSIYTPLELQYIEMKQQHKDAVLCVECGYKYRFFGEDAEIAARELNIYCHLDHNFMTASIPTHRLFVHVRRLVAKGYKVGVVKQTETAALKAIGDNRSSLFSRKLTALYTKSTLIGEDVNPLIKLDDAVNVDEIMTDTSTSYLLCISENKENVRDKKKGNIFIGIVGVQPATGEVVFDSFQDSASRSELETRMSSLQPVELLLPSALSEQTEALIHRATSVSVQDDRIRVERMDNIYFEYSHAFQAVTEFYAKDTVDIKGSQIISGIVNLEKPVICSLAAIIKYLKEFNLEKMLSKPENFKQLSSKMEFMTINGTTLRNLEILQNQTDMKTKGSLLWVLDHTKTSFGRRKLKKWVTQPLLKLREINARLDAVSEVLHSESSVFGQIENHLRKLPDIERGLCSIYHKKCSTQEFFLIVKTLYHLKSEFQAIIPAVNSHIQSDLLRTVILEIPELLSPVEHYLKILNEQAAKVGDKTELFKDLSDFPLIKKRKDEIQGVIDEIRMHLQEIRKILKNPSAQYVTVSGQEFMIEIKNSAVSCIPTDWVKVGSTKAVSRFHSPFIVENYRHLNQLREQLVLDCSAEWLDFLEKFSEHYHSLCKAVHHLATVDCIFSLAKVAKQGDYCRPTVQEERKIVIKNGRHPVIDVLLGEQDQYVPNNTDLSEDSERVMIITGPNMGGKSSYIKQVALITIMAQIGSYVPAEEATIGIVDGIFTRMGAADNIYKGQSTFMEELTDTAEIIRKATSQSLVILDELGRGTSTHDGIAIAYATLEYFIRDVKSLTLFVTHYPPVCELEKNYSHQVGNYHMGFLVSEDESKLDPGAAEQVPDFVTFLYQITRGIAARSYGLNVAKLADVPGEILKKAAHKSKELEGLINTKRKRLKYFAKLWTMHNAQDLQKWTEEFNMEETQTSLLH

T1: 2× HA-3× FLAG-Eya1 (UniProt P97767)
T1 sequence: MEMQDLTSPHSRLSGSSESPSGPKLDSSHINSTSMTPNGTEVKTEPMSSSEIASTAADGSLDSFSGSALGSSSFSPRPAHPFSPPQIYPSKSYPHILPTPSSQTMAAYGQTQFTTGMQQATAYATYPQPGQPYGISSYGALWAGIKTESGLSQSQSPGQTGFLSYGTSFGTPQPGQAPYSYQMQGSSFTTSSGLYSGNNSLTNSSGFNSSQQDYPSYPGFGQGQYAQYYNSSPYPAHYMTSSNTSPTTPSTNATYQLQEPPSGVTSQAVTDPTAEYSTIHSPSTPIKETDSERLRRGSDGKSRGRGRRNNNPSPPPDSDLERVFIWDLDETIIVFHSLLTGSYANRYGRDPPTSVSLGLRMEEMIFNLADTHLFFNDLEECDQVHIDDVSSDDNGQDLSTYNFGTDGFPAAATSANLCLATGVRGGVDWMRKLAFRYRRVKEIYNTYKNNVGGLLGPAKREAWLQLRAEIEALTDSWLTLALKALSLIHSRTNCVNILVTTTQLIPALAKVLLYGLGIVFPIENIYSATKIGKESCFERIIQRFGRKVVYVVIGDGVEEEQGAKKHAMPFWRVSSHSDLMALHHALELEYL

B1: ZNF281 (protein, UniProt Q9Y2X9 1-895)
chain: MKIGSGFLSGGGGTGSSGGSGSGGGGSGGGGGGGSSGRRAEMEPTFPQGMVMFNHRLPPVTSFTRPAGSAAPPPQCVLSSSTSAAPAAEPPPPPAPDMTFKKEPAASAAAFPSQRTSWGFLQSLVSIKQEKPADPEEQQSHHHHHHHHYGGLFAGAEERSPGLGGGEGGSHGVIQDLSILHQHVQQQPAQHHRDVLLSSSSRTDDHHGTEEPKQDTNVKKAKRPKPESQGIKAKRKPSASSKPSLVGDGEGAILSPSQKPHICDHCSAAFRSSYHLRRHVLIHTGERPFQCSQCSMGFIQKYLLQRHEKIHSREKPFGCDQCSMKFIQKYHMERHKRTHSGEKPYKCDTCQQYFSRTDRLLKHRRTCGEVIVKGATSAEPGSSNHTNMGNLAVLSQGNTSSSRRKTKSKSIAIENKEQKTGKTNESQISNNINMQSYSVEMPTVSSSGGIIGTGIDELQKRVPKLIFKKGSRKNTDKNYLNFVSPLPDIVGQKSLSGKPSGSLGIVSNNSVETIGLLQSTSGKQGQISSNYDDAMQFSKKRRYLPTASSNSAFSINVGHMVSQQSVIQSAGVSVLDNEAPLSLIDSSALNAEIKSCHDKSGIPDEVLQSILDQYSNKSESQKEDPFNIAEPRVDLHTSGEHSELVQEENLSPGTQTPSNDKASMLQEYSKYLQQAFEKSTNASFTLGHGFQFVSLSSPLHNHTLFPEKQIYTTSPLECGFGQSVTSVLPSSLPKPPFGMLFGSQPGLYLSALDATHQQLTPSQELDDLIDSQKNLETSSAFQSSSQKLTSQKEQKNLESSTGFQIPSQELASQIDPQKDIEPRTTYQIENFAQAFGSQFKSGSRVPMTFITNSNGEVDHRVRTSVSDFSGYTNMMSDVSEPCSTRVKTPTSQSYR
B2: ZNF622 (protein, UniProt Q969S3 1-477)
chain: MATYTCITCRVAFRDADMQRAHYKTDWHRYNLRRKVASMAPVTAEGFQERVRAQRAVAEEESKGSATYCTVCSKKFASFNAYENHLKSRRHVELEKKAVQAVNRKVEMMNEKNLEKGLGVDSVDKDAMNAAIQQAIKAQPSMSPKKAPPAPAKEARNVVAVGTGGRGTHDRDPSEKPPRLQWFEQQAKKLAKQQEEDSEEEEEDLDGDDWEDIDSDEELECEDTEAMDDVVEQDAEEEEAEEGPPLGAIPITDCLFCSHHSSSLMKNVAHMTKDHSFFIPDIEYLSDIKGLIKYLGEKVGVGKICLWCNEKGKSFYSTEAVQAHMNDKSHCKLFTDGDAALEFADFYDFRSSYPDHKEGEDPNKAEELPSEKNLEYDDETMELILPSGARVGHRSLMRYYKQRFGLSRAVAVAKNRKAVGRVLQQYRALGWTGSTGAALMRERDMQYVQRMKSKWMLKTGMKNNATKQMHFRVQVRF
B3: RFX/X-box TF RFX1 (protein, UniProt P22670 1-979)
chain: MATQAYTELQAAPPPSQPPQAPPQAQPQPPPPPPPAAPQPPQPPTAAATPQPQYVTELQSPQPQAQPPGGQKQYVTELPAVPAPSQPTGAPTPSPAPQQYIVVTVSEGAMRASETVSEASPGSTASQTGVPTQVVQQVQGTQQRLLVQTSVQAKPGHVSPLQLTNIQVPQQALPTQRLVVQSAAPGSKGGQVSLTVHGTQQVHSPPEQSPVQANSSSSKTAGAPTGTVPQQLQVHGVQQSVPVTQERSVVQATPQAPKPGPVQPLTVQGLQPVHVAQEVQQLQQVPVPHVYSSQVQYVEGGDASYTASAIRSSTYSYPETPLYTQTASTSYYEAAGTATQVSTPATSQAVASSGSMPMYVSGSQVVASSTSTGAGASNSSGGGGSGGGGGGGGGGGGGGSGSTGGGGSGAGTYVIQGGYMLGSASQSYSHTTRASPATVQWLLDNYETAEGVSLPRSTLYCHYLLHCQEQKLEPVNAASFGKLIRSVFMGLRTRRLGTRGNSKYHYYGLRIKASSPLLRLMEDQQHMAMRGQPFSQKQRLKPIQKMEGMTNGVAVGQQPSTGLSDISAQVQQYQQFLDASRSLPDFTELDLQGKVLPEGVGPGDIKAFQVLYREHCEAIVDVMVNLQFTLVETLWKTFWRYNLSQPSEAPPLAVHDEAEKRLPKAILVLLSKFEPVLQWTKHCDNVLYQGLVEILIPDVLRPIPSALTQAIRNFAKSLESWLTHAMVNIPEEMLRVKVAAAGAFAQTLRRYTSLNHLAQAARAVLQNTAQINQMLSDLNRVDFANVQEQASWVCRCEDRVVQRLEQDFKVTLQQQNSLEQWAAWLDGVVSQVLKPYQGSAGFPKAAKLFLLKWSFYSSMVIRDLTLRSAASFGSFHLIRLLYDEYMYYLIEHRVAQAKGETPIAVMGEFANLATSLNPLDPDKDEEEEEEEESEDELPQDISLAAGGESPALGPETLEPPAKLARTDARGLFVQALPSS
B4: highly divergent homeobox protein HDX (protein, UniProt Q7Z353 1-690)
chain: MNLRSVFTVEQQRILQRYYENGMTNQSKNCFQLILQCAQETKLDFSVVRTWVGNKRRKMSSKNSESGTATTGTSLSAPDITVRNVVNIARPSSQQSSWTSANNDVIVTGIYSPASSSSRQGTNKHTDTQITEAHKIPIQKTATKNDTEFQLHIPVQRQVAHCKNASLLLGEKTIILSRQTSVLNAGNSVFNHAKKNYGNSSVQASEMTVPQKPSVCHRPCKIEPVGIQRSYKPEHTGPALHNLCGQKPTIRDPYCRTQNLEIREVFSLAVSDYPQRILGGNAPQKPSSAEGNCLSIAMETGDAEDEYAREEELASMRAQIPSYSRFYESGSSLRAENQSTTLPGPGRNMPNSQMVNIRDMSDNVLYQNRNYHLTPRTSLHTASSTMYSNTNPLRSNFSPHFASSNQLRLSQNQNNYQISGNLTVPWITGCSRKRALQDRTQFSDRDLATLKKYWDNGMTSLGSVCREKIEAVATELNVDCEIVRTWIGNRRRKYRLMGIEVPPPRGGPADFSEQPESGSLSALTPGEEAGPEVGEDNDRNDEVSICLSEGSSQEEPNEVVPNDARAHKEEDHHAVTTDNVKIEIIDDEESDMISNSEVEQVNSFLDYKNEEVKFIENELEIQKQKYFKLQTFVRSLILAMKADDKEQQQALLSDLPPELEEMDFNHASLEPDDTSFSVSSLSEKNVSESL
B5: transcriptional activator PURA (protein, UniProt Q00577 1-322)
chain: MADRDSGSEQGGAALGSGGSLGHPGSGSGSGGGGGGGGGGGGSGGGGGGAPGGLQHETQELASKRVDIQNKRFYLDVKQNAKGRFLKIAEVGAGGNKSRLTLSMSVAVEFRDYLGDFIEHYAQLGPSQPPDLAQAQDEPRRALKSEFLVRENRKYYMDLKENQRGRFLRIRQTVNRGPGLGSTQGQTIALPAQGLIEFRDALAKLIDDYGVEEEPAELPEGTSLTVDNKRFFFDVGSNKYGVFMRVSEVKPTYRNSITVPYKVWAKFGHTFCKYSEEMKKIQEKQREKRAACEQLHQQQQQQQEETAAATLLLQGEEEGEED
B6: non-POU domain-containing octamer-binding protein NONO (protein, UniProt Q15233 1-471)
chain: MQSNKTFNLEKQNHTPRKHHQHHHQQQHHQQQQQQPPPPPIPANGQQASSQNEGLTIDLKNFRKPGEKTFTQRSRLFVGNLPPDITEEEMRKLFEKYGKAGEVFIHKDKGFGFIRLETRTLAEIAKVELDNMPLRGKQLRVRFACHSASLTVRNLPQYVSNELLEEAFSVFGQVERAVVIVDDRGRPSGKGIVEFSGKPAARKALDRCSEGSFLLTTFPRPVTVEPMDQLDDEEGLPEKLVIKNQQFHKEREQPPRFAQPGSFEYEYAMRWKALIEMEKQQQDQVDRNIKEAREKLEMEMEAARHEHQVMLMRQDLMRRQEELRRMEELHNQEVQKRKQLELRQEEERRRREEEMRRQQEEMMRRQQEGFKGTFPDAREQEIRMGQMAMGGAMGINNRGAMPPAPVPAGTPAPPGPATMMPDGTLGLTPPTTERFGQAATMEGIGAIGGTPPAFNRAAPGAEFAPNKRRRY

Biological target: T1, 2× HA-3× FLAG-Eya1
Assay: affinity purification with mass spectrometry; tandem purification of HF-Eya1 from lysate of stable HEK293 cells: anti-FLAG M2 beads, FLAG peptide elution, then anti-HA agarose; 50 mM Tris-HCl pH 7.5, 150 mM NaCl, 0.1% Nonidet P-40, 4°C; 12 bands (B1-B12) cut from a silver-stained gel

binding, binds:
PDCD6IP (programmed cell death 6-interacting protein) (from UniProt Q8WUM4 1-868)
RAD21 (double-strand-break repair protein) (from UniProt O60216 1-631)
Sp1 (from UniProt P08047 1-785)
signal transducer and activator STAT1 (from UniProt P42224 1-750)
SMC2 (from UniProt O95347 1-1197)
RBBP4 (from UniProt Q09028 1-425)
BMI1 (from UniProt P35226 1-326)
signal transducer and activator STAT3 (from UniProt P40763 1-770)
RAD50 (from UniProt Q92878 1-1312)
transcription elongation regulator TCERG1 (from UniProt O14776 1-1098)
Condensin complex subunit 2 (from UniProt A8K4T8 1-741)
SMC3 (from UniProt Q9UQE7 1-1217)
MCM8 (from UniProt Q9UJA3 1-840)
PCID2 (cell survival and cell-cycle) (from UniProt Q5JVF3 1-399)
CHTF18 (chromosome cohesion factor) (from UniProt Q8WVB6-2 1-1003)
HDAC1 (histone deacetylase 1) (from UniProt Q13547 1-482)
MSH6 (from UniProt P52701 1-1360)
RPTOR (mTOR associated regulatory protein) (from UniProt Q8N122 1-1335)
MSH3 (from UniProt P20585 1-1137)
B1
B2
B3
B4
B5
B6

These are yes or no findings as the source states them, for the method shown. Binding seen in cells or lysates may run through a third protein. These calls come from enrichment with a bait or labelling near it, and not all partners need be listed. Where a sequence is shown, tags or fusion partners need not be part of it.
